Experimental data from patent US20240115742A1, “FLUORINATED FIBERS FOR MULTIMODAL 1H AND 19F MRI, ULTRASOUND, FLUORESCENCE DETECTION AND CONFORMATIONAL AND TEMPERATURE DETECTION BY 19F MRS” (New York University, priority 2022, published 2024).

How the values were obtained:
Format in all cases: physicochemical
[1] = Circular dichroism wavelength scans
[2] = Passive microrheology (multiple particle tracking); details: 2 mM, 4 °C
Description: Microrheology. Protein was concentrated to 2 mM, as measured by BCA assay, and immediately aliquoted 27.7 μL into a 200 μL PCR tube. 1% v/v (or 0.3 μL) of […] red polystyrene fluorometric beads (FluoSpheres) were then added to the sample. A glass capillary tube was then loaded with sample by capillary action and sealed to prevent evaporation while being affixed to a microscopy slide using two-component fast-curing epoxy (JB Weld). Samples were then imaged at 0 h as a starting measurement and then every 12 h using a Leica DMI4000b inverted microscope equipped with a Leica DFC310 FX 1.4 megapixel camera at 40× magnification with 2×2 binning. Between imaging, slides were incubated on a rotisserie at 8 rpm to prevent sedimentation of the fluorometric beads. Each image series was recorded for a total of 300 frames with a lag time (i) of 0.037 s between each frame. Relaxation exponents i.e. the logarithmic slopes of particle mean-squared displacements (MSDs) with respect to lag time as determined by multiple particle tracking (MPT) analysis were used to determine when equilibration of the hydrogel was complete and measurements were no longer recorded (60 h in this case). Images were stacked and converted to grayscale in MATLAB (Mathworks, R2021a) using code developed in-house, with MPT then being employed using MATLAB code developed and modified by Dufresene, Kilfoil, Blair, and O'Neill as described previously.
Gelation kinetics of the hydrogels were assessed using passive microrheology (FIG. 61a-e). Time to gelation was measured immediately after concentration to 2 mM at 4° C. by incubating with 1 μm fluorescent tracer beads added to the protein in solution state at a final concentration of 1% (v/v). […] Mean square displacements (MSDs) of bead trajectories were analyzed periodically per the span of respective protein gelation times. An initial MSD-τ curve corresponding to a solution at 1.00 μm^2 s^−1 (consistent with Brownian motion) was used as the master solution curve and the final MSD-τ curve measured per protein gelation was selected as the master gel curve. Intermediate MSD-τ curves measured were superimposed onto either the master solution or master gel curve using horizontal and vertical shift factors, a and b, respectively. The window of sol-gel transition was determined between where a divergence in superposition occurred for each protein gelation.
Microrheology. Microrheology was used to assess gelation kinetics as described previously. Immediately after concentration to 2 mM, 29.7 uL were aliquoted with 0.3 uL of 1 um diameter FluoSpheres and loaded into glass capillary tubes (VitroCom). Samples were then imaged using an inverted fluorescent microscope (ZEISS Microscopy) at 40× magnification with 2×2 binning. Samples were incubated at 4° C. on a rotisserie at 8 rpm between measurements and imaged incrementally at select time points. […] Images were stacked, converted to greyscale, and analyzed with multiple particle tracking (MPT) in MATLAB (Mathworks, R2021a). Prior to other experiments of hydrogels in the gel state, microrheology here was used to confirm its complete transition.

[3] = ATR-FTIR peak deconvolution of secondary structure; details: for Turns/Coils (%) / α-helix (%) / β-sheet(%): 2 mM
Description: Attenuated Total Reflectance-Fourier Transform Infrared Spectroscopy. Secondary structure of protein fiber variants was confirmed using attenuated total reflectance-Fourier transform infrared (ATR-FTIR) spectroscopy using the Nicolet 6700 Fourier Transform Infrared Spectrometer equipped with a diamond ATR accessory and a mercury cadmium telluride (MCT)-A detector. Spectra were collected for 5 μL of 500 μM protein from 4000-400 cm^−1 with 0.5 cm^−1 increments at room temperature (RT). For CCM bound protein, protein was bound at a final concentration of 500 μM and saturated with CCM as determined by fluorescent spectroscopic drug binding with a final 1% v/v DMSO. Sample spectra were normalized using buffer background and analyzed from 1700-1600 cm^−1 corresponding to the amide I region. Peaks were deconvoluted using Gaussian functions in PeakFit software until the goodness of fit reached r^2≥0.99. Peaks were associated with secondary structure were determined by methods known in the art.
(§1) Attenuated Total Reflectance-Fourier Transform Infrared Spectroscopy. Secondary structure of Q2 protein was confirmed using attenuated total reflectance-Fourier transform infrared (ATR-FTIR) spectroscopy using the Nicolet 6700 Fourier Transform Infrared Spectrometer equipped with a diamond ATR accessory and a mercury cadmium telluride (MCT)-A detector. Spectra were collected for 5 μL of 2 mM protein from 4000-400 cm^−1 with 0.5 cm^−1 increments. Sample spectra were normalized using buffer background and analyzed from 1700-1600 cm^−1 corresponding to the amide I region. Peaks were deconvoluted using Gaussian functions in PeakFit software until the goodness of fit reached r^2>0.99.
as §1, with “of Q2LTF and QLTF” for “of Q2”, “using a” for “using the”, “of 1” for “of 2”, “with 4.0” for “with 0.5”, “reached r^2≥0.99.” for “reached r^2>0.99.”
Attenuated Total Reflectance-Fourier Transform Infrared Spectroscopy. Secondary structure before (solution) and after gelation (gel) was also assessed by peak deconvolution of attenuated total reflectance-Fourier transform infrared (ATR-FTIR) spectra. ATR-FTIR measurements were performed using a Nicolet 6700 Fourier Transform Infrared Spectrometer equipped with a mercury cadmium telluride (MCT)-A detector. Spectra were collected for 5 μL samples of protein at 2 mM from 4000-400 cm^−1 with a 4.0 cm^−1 resolution, normalized, and buffer-subtracted prior to analysis from 1700-1600 cm^−1, corresponding to the amide I region. ATR-FTIR measurements were performed immediately after concentration to 2 mM for solution measurements and after. Peaks were deconvoluted using Gaussian functions in PeakFit software until the goodness of fit reached r^2≥0.99.

Substance | θ222/θ208 ([1]; Gel) | θ208 ([1]; Gel, 15 μM, 4 °C) | θ222 ([1]; Gel, 15 μM, 4 °C) | θ208 ([1]; Solution, 15 μM, 4 °C) | θ222 ([1]; Solution, 15 μM, 4 °C) | MRE minimum at 208 nm ([1]; solution) | MRE minimum at 222 nm ([1]; solution) | θ222/θ208 ([1]; solution) | critical gelation time, tc (tgel) [2] | critical relaxation exponent, nc [2] | Turns/Coils (%) ([3]; Gel) | α-helix (%) ([3]; Gel) | β-sheet(%) ([3]; Gel) | Turns/Coils (%) ([3]; Solution) | α-helix (%) ([3]; Solution) | β-sheet(%) ([3]; Solution) | also measured
Q3: Q variant with V44I pore mutation, SEQ ID NO: 12 (MRGSHHHHHHGSIEGRVKEILFLKNTAYQMLLELKETNEALYDIRHLLQQQSKL) [Protein Q3] | 2.3 ± 0.3 | −2,000 ± 0 mdeg · cm^2 · dmol^−1 | −4,000 ± 1,000 mdeg · cm^2 · dmol^−1 | −2,000 ± 1,000 mdeg · cm^2 · dmol^−1 | −3,000 ± 1,000 mdeg · cm^2 · dmol^−1 | −2,500±900 deg cm^2 dmol^−1 | −3,000±900 deg cm^2 dmol^−1 | 1.2 ± 0.1 | 58 ± 0.4 h | 0.52 ± 0.01 | 19.3 ± 3.2 | 34.1 ± 6.1 | 46.5 ± 3.8 | 21.0 ± 3.5 | 32.1 ± 6.1 | 46.9 ± 4.2 | θ208 ([1]; 25 °C, 15 μM, pH 4.0): −19,000 ± 3,000 mdeg · cm^2 · dmol^−1; θ222 ([1]; 25 °C, 15 μM, pH 4.0): −20,000 ± 2,000 mdeg · cm^2 · dmol^−1; θ222/θ208 ([1]; 25 °C, 15 μM, pH 4.0): 1.08 ± 0.08; 3-10 Helix ([3]; native): 13.6%; Turns/Coils (combined, random content) ([3]; native): 18.8 ± 5.9%; Unordered ([3]; native): 0.0%; α-helix ([3]; native): 41.1%; β-sheet ([3]; native): 33.4%; β-sheet (combined) ([3]; native): 40.1 ± 5.9%; 3-10 Helix ([3]; w/CCM): 18.3%; Turns/Coils (combined) ([3]; w/CCM): 36.1 ± 17.5%; Unordered ([3]; w/CCM): 0.0%; α-helix ([3]; w/CCM): 34.3%; β-sheet ([3]; w/CCM): 22.0%; β-sheet (combined) ([3]; w/CCM): 29.6 ± 11.3%
Q6: Q hydrogel variant from trimodal Monte Carlo search, SEQ ID NO: 15 (MRGSHHHHHHGSIEGRVKEITFIKKQIEQIAEEMKEINKAIHDIRHALENISKK) [Protein Q6] | 1.5 ± 0.1 | −16,000 ± 1,000 mdeg · cm^2 · dmol^−1 | −16,000 ± 1,000 mdeg · cm^2 · dmol^−1 | −25,000 ± 6,000 mdeg · cm^2 · dmol^−1 | −27,000 ± 6,000 mdeg · cm^2 · dmol^−1 | −25,000±6,100 deg cm^2 dmol^−1 | −26,800±6,000 deg cm^2 dmol^−1 | 1.1 ± 0.0 | 48.3 ± 1.7 h and ~48 h | 0.60±0.03 | 19.3 ± 2.5 | 33.8 ± 1.6 | 46.9 ± 2.6 | 26.7 ± 7.6 | 27.4 ± 6.8 | 57.6 ± 2.1 | 
Q5: Q hydrogel variant from Rosetta Monte Carlo search, SEQ ID NO: 14 (MRGSHHHHHHGSIEGRVKEITFIKKTIEQIAEEMKEINKAIHDIRHALENISKK) [Protein Q5] | 1.6 ± 0.1 | −5,000 ± 1,000 mdeg · cm^2 · dmol^−1 | −8,000 ± 2,000 mdeg · cm^2 · dmol^−1 | −16,000 ± 2,000 mdeg · cm^2 · dmol^−1 | −18,000 ± 1,000 mdeg · cm^2 · dmol^−1 | −15,600±1,800 deg cm^2 dmol^−1 | −18,300±1,000 deg cm^2 dmol^−1 | 1.2 ± 0.1 | 11.5 h and 11.5 ± 1.5 h | 0.49±0.02 | 10.0 ± 8.7 | 41.2 ± 3.8 | 48.6 ± 6.3 | 16.1 ± 0.6 | 39.8 ± 0.7 | 44.2 ± 0.2 | 

Values joined by “and” are separate entries in the source; they are usually repeats but may differ in a detail not shown here. Identical values can stand only once.
